Out of some 1,300 compounds screened, about 270 (21%) were called active.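 The calls were made as follows: active = dose-dependent rise or fall in viability, either side of zero, with half-maximal concentration at or below a set limit; inconclusive = flat curve at 30 to 70% viability loss, or poor fit; inactive = flat within 30% either way, or potency beyond limit.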 Some of the results follow. Measured potencies and affinities stand elsewhere.
assay: A375 melanoma cell viability reduction, dose response, counter-screen for MITF modulator project, cherry-pick samples, set 2 (AID 540335); settings: CellTiter-Glo ATP luminescence, 24 h; at 35 µM (top of the series);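 also: A375 human melanoma cells which do not depend on MITF; 0% = median of neutral control wells and 100% = double that signal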

Row | SMILES | activity change, negative = decreased viability
1 | CCOC(=O)c1[nH]cnc1N=Nc1c(O)ccc2ccccc12 | inactive: -38%
2 | COc1ccc(-n2c(C)cc(C(=O)CCl)c2C)cc1 | inactive: -8.15%
3 | CC(C)N=c1c([N+](=O)[O-])nn(C)n1O | inactive: 0.56%
4 | CC(=O)OCCCNc1cc(Sc2ccc(Cl)cc2)c2nonc2c1[N+](=O)[O-] | inactive: -14.9%
5 | COc1cc2c(cc1OC)C(c1ccccc1)N(C(=O)CCl)CC2 (stereo not drawn) | inactive: -29.7%
6 | Cc1ccc(C#CC[N+]2(CC#Cc3ccc(C)cc3)CCCCC2)cc1 | inactive: -31.7%
7 | CCc1nc2oc3ccc(C)cc3c(=O)c2cc1C(=O)OC | inactive: 0.143%
8 | O=C(N/N=C/c1ccc([N+](=O)[O-])s1)C(O)c1ccccc1 (stereo not drawn) | inactive: -11.8%
9 | CC(=O)CSc1ccc(-c2nc3cc(C)c(C)cc3[nH]2)cn1 | inactive: 0.812%
10 | Cc1cccc(N(O)C(=O)Nc2cccc(Cl)c2)c1 | inactive: 2.44%
11 | Cc1ccc(C)c(C(=O)Cn2ncc(Cl)c(Cl)c2=O)c1 | inactive: 78.1%
12 | CC(C)(C)c1cc(NCCCn2ccnc2)n2ncc(-c3ccccc3)c2n1 | inactive: -23.5%
13 | CCOC(=O)CSC1=NC(=O)/C(=C\c2ccc(OC(C)=O)cc2)S1 | inactive: -22.6%
14 | CC1(C)Cc2c(sc(NC(=O)c3ccc4ncsc4c3)c2C(N)=O)C(C)(C)N1 | inactive: -11.1%
15 | Clc1ccc(-c2nc(-c3ccncc3)no2)c(Cl)c1 | inactive: 4.85%
16 | O=C(N/N=C/c1ccccc1)c1ccco1 | inactive: -0.119%
17 | COc1cccc(/C=N/NC(=O)c2cccs2)c1 | inactive: 3.42%
18 | Cc1ccc2nc(NC(=O)CCCC(=O)O)sc2c1 | inactive: 12%
19 | CCCCN1CCc2c1nc1ccc(Br)cc1c2N | inactive: -11.7%
20 | NCCCNc1nc(N)c([N+](=O)[O-])c(NC2CCCCC2)n1 | inactive: -24%
21 | COc1ccc(COC(=O)c2n[nH]c3ccccc23)cc1F | inactive: 6.51%

Filtered by structure, the compounds so far with an aryl thioether with sulfur outside any ring
Row | SMILES | activity change, negative = decreased viability
4 | CC(=O)OCCCNc1cc(Sc2ccc(Cl)cc2)c2nonc2c1[N+](=O)[O-] | inactive: -14.9%
9 | CC(=O)CSc1ccc(-c2nc3cc(C)c(C)cc3[nH]2)cn1 | inactive: 0.812%

Further compounds follow:

Row | SMILES | activity change, negative = decreased viability
22 | O=C(CCl)N1N=C(c2ccco2)CC1c1cccs1 (stereo not drawn) | inactive: -31.6%
23 | O=C(Nc1ccccc1F)C(=O)Nc1cccc2ccccc12 | inactive: -6.03%
24 | COc1ccc(NCc2nc3ccccc3n2C)cc1 | inactive: -15.4%
25 | N#Cc1cc2c(nc1SC1CC(=O)N(c3ccccc3)C1=O)CCC2 (stereo not drawn) | inactive: 2.48%
26 | c1ccc(C[n+]2cccc3c4ccccc4ccc32)cc1 | inactive: -9.04%
27 | CCOCCCNC(=O)/C(C#N)=C/c1ccc([N+](=O)[O-])o1 | inactive: 4.45%
28 | O=C(N/N=C/c1ccc(F)cc1)c1c(O)c2ccccc2[nH]c1=O | inactive: -19.2%
29 | COCCNC(=O)c1cc2sc3ccccc3c2s1 | inactive: 8.96%
30 | CC1CCCCC1NC(=O)/C(C#N)=C/c1ccccc1F (stereo not drawn) | inactive: -7.44%
31 | O=C(N/N=C/c1ccc([N+](=O)[O-])s1)c1cccc(Br)c1 | inactive: -11.5%
32 | O=C(NC(=S)Nc1ccccn1)c1cccc([N+](=O)[O-])c1 | inactive: 6.18%
33 | O=C(Cc1ccc2c(c1)OCO2)NN=Cc1ccc([N+](=O)[O-])o1 | inactive: -3.36%
34 | O=C(O)c1cc2ccccc2c(N=Nc2cccnc2)c1O | inactive: -5.09%
35 | COc1ccccc1NC(=O)c1nc(S(=O)(=O)Cc2ccccc2)ncc1Cl | inactive: -24.6%
36 | CCCOC(=O)c1ccc(NC(=O)C2CCCO2)cc1 (stereo not drawn) | inactive: -5.07%
37 | Cc1ccc(NC(=O)c2ccc([N+](=O)[O-])s2)cc1S(=O)(=O)N1CCOCC1 | inactive: -13.4%
38 | Cc1ccc2nc(-c3cccnc3)oc2c1 | inactive: -0.651%
39 | O=C(C[n+]1cccc2ccccc21)c1ccc([N+](=O)[O-])cc1 | inactive: -6.09%
40 | CC(=O)c1c(C)[nH]c(C(=O)Nc2ccc(C)c(C)c2)c1C | inactive: 1.51%
41 | CC(C)c1ccc(/C=N/Nc2ccc(C(=O)O)cc2)cc1 | inactive: 10%
42 | CC(C)N=C(NS(=O)(=O)c1ccccc1)C(Cl)(Cl)Cl | inactive: 2.01%

Row | SMILES | activity change, negative = decreased viability
43 | CCCC(=O)N1CCN(c2ccc(NC(=O)c3ccc([N+](=O)[O-])o3)cc2)CC1 | inactive: 11.4%
44 | COc1ccc(-n2cc(-c3ccc(C)cc3)[n+]3c2SCC3)cc1 | inactive: -17.9%
45 | COc1ccc2cc3cc(C(=O)NCCc4ccc(OC)c(OC)c4)oc3nc2c1 | inactive: -2.65%
46 | O=C(Nc1ccccc1Cl)c1cc(=O)c2ccccc2o1 | inactive: 8.01%
47 | Cc1cc2ncn(/N=C/c3ccc([N+](=O)[O-])o3)c2cc1C | inactive: -15.1%
48 | Cc1cc(NC(=O)c2ccc([N+](=O)[O-])o2)ccc1NC(=O)c1ccco1 | inactive: -30.9%
49 | Cc1ccc(OCC(=O)Nc2cccc(C)n2)c(C)c1 | inactive: 4.74%
50 | CCOC(=O)/C=c1\s/c(=C\c2ccc3cc(OC)ccc3c2)c(=O)n1CC(=O)NCC1CCCO1 (stereo not drawn) | inactive: -36.3%
51 | c1ccc(Cc2cc(-c3ccccc3)on2)cc1 | inactive: 7.4%
52 | Cc1[nH]n(-c2ccccc2)c(=O)c1N=Nc1cccc(C(=O)O)c1 | inactive: 6.87%
53 | N#Cc1cnc2sc3ccccc3n2c1=N | inactive: 5.98%
54 | O=C(Nc1ccc2c(c1)OCCO2)c1coc2ccccc2c1=O | inactive: -0.104%
55 | CCOC(=O)c1ccc(NC(=O)c2ccnn2C)cc1 | inactive: 9.45%
56 | O=[N+]([O-])/C=C\c1ccc(N2CCOCC2)cc1 | inactive: -34%
57 | N/C(=N\OC(=O)c1cccc(F)c1)c1cccc([N+](=O)[O-])c1 | inactive: 3.72%
58 | COc1cc2c(cc1OC)C(C)N(S(=O)(=O)c1cnc(Cl)c(Cl)c1)CC2 (stereo not drawn) | inactive: -19.7%
59 | Cc1ccc2c(C(=O)CCl)c(C)[nH]c2c1 | inactive: -16.4%
60 | O=C(Cn1cnc2ccccc2c1=O)Nc1ccc2c(c1)OCCO2 | inactive: -0.724%
61 | CC(OC(=O)c1ccc([N+](=O)[O-])s1)C(=O)NC1CCCCC1C (stereo not drawn) | inactive: -8.84%
62 | CCOC(=O)c1cn2nc(Oc3ccccc3)ccc2n1 | inactive: -4.82%
63 | COc1ccc(NC(=O)c2scc(S(=O)(=O)C(C)C)c2N)cc1 | inactive: 0.489%

Reference: PubChem BioAssay AID540335 (Broad Institute, 2011)
